Patent US9499551B2, “Substituted pyrrolo[2,3-b]pyridines for treating cancer or inflammatory diseases” (Confluence Life Sciences, Inc., priority 2014, dated 2016)
The match of structure and compound is tentative.

By UniProt entry, the sequences of proteins in these tests, tags left out. Chains listed by the source or under a name are the forms on record and can include a tag or linker. Residues count along the entry.
UniProt O43318, 1-303 with tags or gaps limits assumed: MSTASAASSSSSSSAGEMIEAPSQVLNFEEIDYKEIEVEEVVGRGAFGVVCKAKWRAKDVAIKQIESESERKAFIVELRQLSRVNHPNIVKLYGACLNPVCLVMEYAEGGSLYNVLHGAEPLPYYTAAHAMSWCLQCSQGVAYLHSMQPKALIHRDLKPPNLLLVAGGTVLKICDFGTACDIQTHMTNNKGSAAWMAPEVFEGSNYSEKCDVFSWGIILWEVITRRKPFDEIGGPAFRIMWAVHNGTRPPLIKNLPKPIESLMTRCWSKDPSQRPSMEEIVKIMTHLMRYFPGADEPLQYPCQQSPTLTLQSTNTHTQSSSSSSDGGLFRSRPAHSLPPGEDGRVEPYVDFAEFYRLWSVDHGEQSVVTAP

Key:
[1] = target: TAK1-TAB1 (Homo sapiens, UniProt O43318); experiment: TAK1-TAB1 binding inhibitory potency (LanthaScreen competitive binding assay, kinase tracer-236); settings: read-out: TAK1-Tab (2 h PI) Inhibition IC50 uM; 2 h PI (pre-incubation); 10 nM TAK1-TAB1, 100 nM kinase tracer-236
Excerpt: TAK1-TAB1 Binding Inhibitory Potency:
The ability of candidate compounds to interact with TAK1-TAB1 is quantitated by a competitive binding assay using the LanthaScreen technology developed by Life Technologies. This assay is based on the binding of a proprietary, Alexa Fluor® 647-labeled, ATP-competitive kinase inhibitor (kinase tracer-236) to the TAK1-TAB1 construct in presence of a europium-conjugated antibody, resulting in a FRET (fluorescence resonance energy transfer) signal. Displacement of the kinase tracer by compound results in a lower emission ratio upon excitation of the europium chelate. Candidate compounds are designed as potential irreversible inhibitors of TAK1-TAB1, capable of ligating to an active site cysteine residue. The time dependent nature of irreversible inhibition is investigated by performing the binding assay with and without a pre-incubation of compound and TAK1-TAB1.
The inhibitory potency of candidate compounds is measured in 20 mM HEPES pH 7.5, 10 mM MgCl2, 0.01% BSA, 0.0005% Tween-20, and 2% DMSO in the presence of 10 nM TAK1-TAB1, 2 nM Eu-anti-his antibody, and 100 nM kinase tracer-236 using a 384-well plate format. Background signal is defined in the absence of TAK1-TAB1 and uninhibited signal is defined in the presence of vehicle (2% DMSO) alone. Compounds were evaluated in an 11 point dose-response ranging from 20 μM to 0.34 nM. The binding assays are performed under two conditions to evaluate time dependence of inhibition. For the pre-incubation assay, TAK1-TAB1 and Eu-anti-his antibody are preincubated with compound or vehicle for two hours prior to the addition of kinase tracer. The non-preincubated assay is run in which TAK1-TAB1 and Eu-anti-his antibody are added to a mixture of compound and kinase tracer. IC50 values of compounds are determined using a 4 parameter logistical fit of emission ratio as a function of the concentration of compound. […]

[2] = tested on: IL-6 Production in Human Peripheral Blood Mononuclear Cells (PBMC); experiment: LPS stimulated IL-6 production in PBMC cells; settings: read-out: IL-6 Production Inhibition IC50 uM
Description: LPS Stimulated IL-6 Production in PBMC Cells:
Lipopolysaccharide (LPS) stimulated IL-6 Production in Human Peripheral Blood Mononuclear Cells (PBMC): The cellular efficacy of compound candidates is determined using peripheral blood mononuclear cells purified from human whole blood, based upon the methods of Burnette et al. (2009) Pharmacology, 84:42-60. PBMC produce a number of cytokines (IL6, IL8, IL1β and TNFα) in response to stimulation with LPS. To induce the production of inflammatory mediators, PBMC are plated at a final concentration of 2×10^5 cells/well in a 96 well flat bottom plate in DMEM medium supplemented with 10% fetal bovine serum, 100 units/ml penicillin and 100 μg/ml streptomycin (Gibco BRL Life Technologies). Cells are treated with or without inhibitors for 1-3 hrs then stimulated with 100 ng/ml LPS (serotype 011:B4, Sigma) for an additional 3 hrs at 37° C. with 5% CO2. The supernatants are removed and stored at −20° C. until they are to be assayed. The levels of inflammatory mediators are determined using commercial MSD cytokine kits (Meso Scale Discovery) as per the manufacturer's instructions. Standard curves are based on 7 steps of 4× serial dilutions, with a wide dynamic range of 10000 pg/ml to 2.4 pg/ml, and a blank. Lower limit of detection (LLOD) is calculated at the commonly used 3× the standard deviation of the blank.

| Compound | IC50 [1] | IC50 [2] |
| --- | --- | --- |
| CC(C)=CC(=O)c1c[nH]c2ncc(-c3ccccc3)cc12 | > 1 µM | – |
| C/C=C/C(=O)c1c[nH]c2ncc(-c3ccccc3)cc12 | > 1 µM | – |
| C/C=C(\C)C(=O)c1c[nH]c2ncc(-c3ccccc3)cc12 | > 1 µM | – |
| CC(=O)c1ccc(-c2cnc3[nH]cc(/C=C/C(N)=O)c3n2)cn1 | < 1 µM | < 1 µM |
| NC(=O)/C=C/c1c[nH]c2ncc(-c3ccc(C(=O)c4ccccc4)cc3)cc12 | < 1 µM | – |
| NC(=O)/C=C/c1c[nH]c2ncc(-c3ccn(-c4ccccc4)n3)cc12 | < 1 µM | < 1 µM |
